Test results from PMC2572843.
Results are given in words; binding and its absence hold for the method and conditions named. Binding seen in cells or lysates may run through a third protein. These calls come from enrichment with a bait or labelling near it, and not all partners need be listed. For part of these data: A no says only that the protein was not detected with the bait.

The chains behind the UniProt entries cited, without tags or fusion partners. Residues count along the entry.
UniProt P02769, residues 25-607: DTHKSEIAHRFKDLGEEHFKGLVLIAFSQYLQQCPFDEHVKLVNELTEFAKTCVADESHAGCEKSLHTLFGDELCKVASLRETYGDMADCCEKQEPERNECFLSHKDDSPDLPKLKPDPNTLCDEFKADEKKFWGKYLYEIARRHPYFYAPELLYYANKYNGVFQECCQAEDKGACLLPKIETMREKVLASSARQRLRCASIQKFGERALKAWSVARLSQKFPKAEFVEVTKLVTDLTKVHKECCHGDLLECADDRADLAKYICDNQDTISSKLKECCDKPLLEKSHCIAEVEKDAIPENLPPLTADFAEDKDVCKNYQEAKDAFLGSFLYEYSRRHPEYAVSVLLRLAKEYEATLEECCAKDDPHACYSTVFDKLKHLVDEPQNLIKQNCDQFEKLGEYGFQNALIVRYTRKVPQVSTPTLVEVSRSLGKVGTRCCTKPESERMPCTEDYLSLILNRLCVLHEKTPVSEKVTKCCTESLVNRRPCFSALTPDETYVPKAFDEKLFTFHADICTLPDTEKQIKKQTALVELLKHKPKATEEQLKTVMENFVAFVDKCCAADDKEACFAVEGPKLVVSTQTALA
UniProt P00817: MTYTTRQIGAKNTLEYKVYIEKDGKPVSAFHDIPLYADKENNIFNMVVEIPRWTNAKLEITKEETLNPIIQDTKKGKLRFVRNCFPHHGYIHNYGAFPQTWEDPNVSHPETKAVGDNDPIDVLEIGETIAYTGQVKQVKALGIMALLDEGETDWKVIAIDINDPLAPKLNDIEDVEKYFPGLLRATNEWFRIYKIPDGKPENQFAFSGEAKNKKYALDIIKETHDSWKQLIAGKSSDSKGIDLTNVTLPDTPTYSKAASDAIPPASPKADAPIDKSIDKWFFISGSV
UniProt P00924: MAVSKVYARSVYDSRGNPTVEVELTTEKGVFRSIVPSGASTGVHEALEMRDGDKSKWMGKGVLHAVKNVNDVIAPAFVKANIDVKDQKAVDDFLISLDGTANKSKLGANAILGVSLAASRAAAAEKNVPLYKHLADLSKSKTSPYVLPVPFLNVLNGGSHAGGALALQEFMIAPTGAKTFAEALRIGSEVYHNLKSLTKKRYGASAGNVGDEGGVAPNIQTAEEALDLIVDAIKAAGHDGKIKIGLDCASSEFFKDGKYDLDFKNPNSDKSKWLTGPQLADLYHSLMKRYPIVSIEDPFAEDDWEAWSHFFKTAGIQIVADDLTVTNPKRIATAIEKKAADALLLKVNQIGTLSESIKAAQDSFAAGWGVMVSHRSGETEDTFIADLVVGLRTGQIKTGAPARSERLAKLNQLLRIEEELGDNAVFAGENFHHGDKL
UniProt Q03048: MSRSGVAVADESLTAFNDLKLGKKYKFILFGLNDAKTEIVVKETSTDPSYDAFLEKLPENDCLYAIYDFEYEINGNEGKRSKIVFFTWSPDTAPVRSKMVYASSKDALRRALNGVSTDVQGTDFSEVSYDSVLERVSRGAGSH

B1: Yhr087wp (protein, UniProt P38804 1-111)
chain: MSTVTKYFYKGENTDLIVFAASEELVDEYLKNPSIGKLSEVVELFEVFTPQDGRGAEGELGAASKAQVENEFGKGKKIEEVIDLILRNGKPNSTTSSLKTKGGNAGTKAYN
B2: Ahp1p (protein, UniProt P38013 1-176)
chain: MSDLVNKKFPAGDYKFQYIAISQSDADSESCKMPQTVEWSKLISENKKVIITGAPAAFSPTCTVSHIPGYINYLDELVKEKEVDQVIVVTVDNPFANQAWAKSLGVKDTTHIKFASDPGCAFTKSIGFELAVGDGVYWSGRWAMVVENGIVTYAAKETNPGTDVTVSSVESVLAHL
B3: Tpi1p (protein, UniProt P00942 1-248)
chain: MARTFFVGGNFKLNGSKQSIKEIVERLNTASIPENVEVVICPPATYLDYSVSLVKKPQVTVGAQNAYLKASGAFTGENSVDQIKDVGAKWVILGHSERRSYFHEDDKFIADKTKFALGQGVGVILCIGETLEEKKAGKTLDVVERQLNAVLEEVKDWTNVVVAYEPVWAIGTGLAATPEDAQDIHASIRKFLASKLGDKAASELRILYGGSANGSNAVTFKDKADVDGFLVGGASLKPEFVDIINSRN
B4: Pck1p (protein, UniProt P10963 1-549)
chain: MSPSKMNATVGSTSEVEQKIRQELALSDEVTTIRRNAPAAVLYEDGLKENKTVISSSGALIAYSGVKTGRSPKDKRIVEEPTSKDEIWWGPVNKPCSERTWSINRERAADYLRTRDHIYIVDAFAGWDPKYRIKVRVVCARAYHALFMTNMLIRPTEEELAHFGEPDFTVWNAGQFPANLHTQDMSSKSTIEINFKAMEMIILGTEYAGEMKKGIFTVMFYLMPVHHNVLTLHSSANQGIQNGDVTLFFGLSGTGKTTLSADPHRLLIGDDEHCWSDHGVFNIEGGCYAKCINLSAEKEPEIFDAIKFGSVLENVIYDEKSHVVDYDDSSITENTRCAYPIDYIPSAKIPCLADSHPKNIILLTCDASGVLPPVSKLTPEQVMYHFISGYTSKMAGTEQGVTEPEPTFSSCFGQPFLALHPIRYATMLATKMSQHKANAYLINTGWTGSSYVSGGKRCPLKYTRAILDSIHDGSLANETYETLPIFNLQVPTKVNGVPAELLNPAKNWSQGESKYRGAVTNLANLFVQNFKIYQDRATPDVLAAGPQFE
B5: Tsa1p (protein, UniProt P34760 1-196)
chain: MVAQVQKQAPTFKKTAVVDGVFDEVSLDKYKGKYVVLAFIPLAFTFVCPTEIIAFSEAAKKFEEQGAQVLFASTDSEYSLLAWTNIPRKEGGLGPINIPLLADTNHSLSRDYGVLIEEEGVALRGLFIIDPKGVIRHITINDLPVGRNVDEALRLVEAFQWTDKNGTVLPCNWTPGAATIKPTVEDSKEYFEAANK

Assays:
[1] = target: yeast tropomyosin Tpm1 (recombinant) (S. cerevisiae) (UniProt P17536); test: affinity purification with mass spectrometry; purified Tpm1 coupled to Affi-Gel 10 agarose; yeast S288c high-speed supernatant in HEK buffer (20 mM Hepes pH 7.5, 1 mM EDTA, 50 mM KCl, 10% glycerol) loaded over three hours, washed overnight, eluted with 0.5 M KCl or 3 M urea; BSA columns in parallel; MudPIT; only the target purified
[2] = target: bovine serum albumin (bovine) (UniProt P02769); test: as above

Molecule	binding [1]	binding [2]
Ipp1p (from UniProt P00817 1-287)	binds	–
Eno1p (from UniProt P00924 1-437)	binds	–
Cof1p (endogenous yeast cofilin) (from UniProt Q03048 1-143)	binds	no binding
B1	binds	–
B2	binds	–
B3	binds	–
B4	binds	–
B5	binds	–
